# In publication PMC10570366, “Molecular mechanism of decision-making in glycosaminoglycan biosynthesis” (Nature Communications, 2023):
# Results are given in words; binding and its absence hold for the method and conditions named. Some entries that bind do so weakly or less than the wild type. Where a sequence is shown, tags or fusion partners need not be part of it.
# T1: FLAG-EXT1 (human) (UniProt Q16394)
# T1 sequence: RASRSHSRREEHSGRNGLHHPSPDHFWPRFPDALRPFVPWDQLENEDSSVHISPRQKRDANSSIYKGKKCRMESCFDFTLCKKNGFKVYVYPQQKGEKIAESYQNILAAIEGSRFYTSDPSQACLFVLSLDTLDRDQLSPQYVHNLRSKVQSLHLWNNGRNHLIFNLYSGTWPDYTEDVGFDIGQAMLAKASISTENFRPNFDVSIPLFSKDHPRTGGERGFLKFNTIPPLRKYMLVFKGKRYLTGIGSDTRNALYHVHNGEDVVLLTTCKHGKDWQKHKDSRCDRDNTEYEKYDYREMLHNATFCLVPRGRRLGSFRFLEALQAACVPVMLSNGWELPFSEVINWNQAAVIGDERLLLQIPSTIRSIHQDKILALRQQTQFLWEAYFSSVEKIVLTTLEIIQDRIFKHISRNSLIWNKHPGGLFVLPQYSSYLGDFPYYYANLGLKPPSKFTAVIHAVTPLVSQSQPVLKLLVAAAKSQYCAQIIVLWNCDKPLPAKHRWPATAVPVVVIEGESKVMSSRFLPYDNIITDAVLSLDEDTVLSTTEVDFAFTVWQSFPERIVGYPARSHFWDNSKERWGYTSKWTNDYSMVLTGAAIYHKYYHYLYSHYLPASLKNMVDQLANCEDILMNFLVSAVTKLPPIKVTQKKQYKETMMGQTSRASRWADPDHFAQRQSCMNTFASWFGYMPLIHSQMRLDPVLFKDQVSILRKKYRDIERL
# B1: His-EXT2 (enzyme, UniProt Q93063 47-718)
# chain: PHSIESSNDWNVEKRSIRDVPVVRLPADSPIPERGDLSCRMHTCFDVYRCGFNPKNKIKVYIYALKKYVDDFGVSVSNTISREYNELLMAISDSDYYTDDINRACLFVPSIDVLNQNTLRIKETAQAMAQLSRWDRGTNHLLFNMLPGGPPDYNTALDVPRDRALLAGGGFSTWTYRQGYDVSIPVYSPLSAEVDLPEKGPGPRQYFLLSSQVGLHPEYREDLEALQVKHGESVLVLDKCTNLSEGVLSVRKRCHKHQVFDYPQVLQEATFCVVLRGARLGQAVLSDVLQAGCVPVVIADSYILPFSEVLDWKRASVVVPEEKMSDVYSILQSIPQRQIEEMQRQARWFWEAYFQSIKAIALATLQIINDRIYPYAAISYEEWNDPPAVKWGSVSNPLFLPLIPPQSQGFTAIVLTYDRVESLFRVITEVSKVPSLSKLLVVWNNQNKNPPEDSLWPKIRVPLKVVRTAENKLSNRFFPYDEIETEAVLAIDDDIIMLTSDELQFGYEVWREFPDRLVGYPGRLHLWDHEMNKWKYESEWTNEVSMVLTGAAFYHKYFNYLYTYKMPGDIKNWVDAHMNCEDIAMNFLVANVTGKAVIKVTPRKKFKCPECTAIDGLSLDQTHMVERSECINKFASVFGTMPLKVVEHRADPVLYKDDFPEKLKSFPNIGSL
# Biological target: T1, FLAG-EXT1 (human)
# Assay: co-purification (anti-FLAG affinity resin, then SEC); FLAG-EXT1 and His-EXT2 co-expressed in Expi293F; cleared medium on anti-DYKDDDK resin, washed with 25 mM Na-HEPES pH 7.5, 150 mM NaCl, eluted with FLAG peptide, then size exclusion chromatography
binder,measurement,value
B1,binding,binds
